{
  "source": "patent US10259848B2",
  "about": "“Compositions and methods comprising hydrocarbon-stapled polypeptides” (Dana-Farber Cancer Institute, Inc., priority 2008, dated 2019)",
  "key": {"FIGURE 16C": {"experiment": "FIGURE 16C", "source_text": "Table printed on a drawing sheet, FIGURE 16C\nFirst reader's note: The sheet prints two blocks (626-662 and 638-673 series) under one head; per the description the half-lives are in the presence of chymotrypsin at pH 7."}, "FIGURE 16F": {"experiment": "FIGURE 16F", "source_text": "Table printed on a drawing sheet, FIGURE 16F"}},
  "note": "Not every detail of the peptide structures is certain; ends, links or a residue may be inferred.",
  "data": [
    {"substance": "Enfuvirtide", "values": [
      {"measurement": "half-life", "setting": "FIGURE 16C", "result": 15, "unit": "min"},
      {"measurement": "half-life", "setting": "FIGURE 16F", "result": 4, "unit": "min"}
    ]}
  ]
}
